In all, about 33,000 sequences were measured (“E-score (-0.5 to 0.5)”: median about -0.0034, highest 2% from about 0.25 on). Some of the results follow.
Molecular target: T1, Yap3 (UniProt P38749)
T1 sequence: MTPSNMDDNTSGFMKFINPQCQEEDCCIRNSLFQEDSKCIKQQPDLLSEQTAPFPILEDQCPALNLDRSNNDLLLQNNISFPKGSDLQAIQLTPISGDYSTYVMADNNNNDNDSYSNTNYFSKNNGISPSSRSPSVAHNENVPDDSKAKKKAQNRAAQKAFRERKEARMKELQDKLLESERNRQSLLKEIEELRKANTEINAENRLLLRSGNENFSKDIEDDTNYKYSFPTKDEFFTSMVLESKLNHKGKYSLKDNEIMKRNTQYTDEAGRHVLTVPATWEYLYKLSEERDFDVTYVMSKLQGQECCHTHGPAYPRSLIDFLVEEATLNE
Assay: PBM E-score (8-mer binding enrichment) (E-score (-0.5 to 0.5)); higher = stronger / more preferred TF binding
Conditions: protein concentration: 100 nM; construct: GST-full length
How it was run: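 Universal all-10-mer Agilent arrays, double-stranded by primer extension on fresh or once-stripped slides, were probed with about 100-200 nM GST-tagged yeast transcription factors made by PURExpress. Fluorescent anti-GST detected bound protein, and masliner normalised the scans. E-scores from the Universal PBM Analysis Suite were given to each ungapped eight-base word pooled with its reverse complement.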

| Sequence | PBM E-score |
| --- | --- |
| CCCATACG | -0.055 |
| AATTGTCA | 0.168 |
| CGGGGCCC | -0.128 |
| CAATATTG | 0.213 |
| AGATTCAA | 0.116 |
| AACATGCT | -0.056 |
| GTAACGAA | 0.0928 |
| TAGACAGA | 0.0906 |
| ACCGATTG | 0.0631 |
| GAAAGCTC | -0.2 |
| CAGCCAGA | -0.155 |
| AGAGAGGC | -0.0925 |
| AAAAGAGT | 0.0632 |
| CGTATGCA | 0.0502 |
| AAAATGCC | 0.0391 |
| CTTGATCC | -0.0163 |
| AAATGGTA | 0.236 |
| GTTCACAA | 0.043 |
| CCTTAGAA | -0.00274 |
| ATGGTTCA | 0.105 |
| CGGAAGGA | -0.213 |
| ACTGATAC | -0.0341 |

| Sequence | PBM E-score |
| --- | --- |
| AAATCTGC | -0.0149 |
| GCTCGCCC | -0.132 |
| ATTGACAC | -0.0406 |
| CTGAGCGC | -0.129 |
| AAGGAGTC | -0.29 |
| AACCCGTA | -0.0887 |
| CTAGCATA | 0.0488 |
| GATAACTA | 0.169 |
| AAACCGGT | -0.0491 |
| CCGGTTCA | -0.159 |
| CGTCCGGC | -0.0999 |
| AGCGTAGG | -0.122 |
| GAAGAGGC | -0.225 |
| ATCCAACC | 0.00913 |
| GAGGTCAA | -0.115 |
| GCGGTCCA | -0.366 |
| GCTAATGA | 0.0606 |
| AGGCCTAT | -0.0769 |
| CGAGCTAA | -0.0581 |
| GATGCAAA | 0.0581 |
| GCTGAGAC | -0.0631 |
| GCCGGGTA | -0.271 |

| Sequence | PBM E-score |
| --- | --- |
| AGACGGCT | -0.174 |
| GTATAACA | 0.133 |
| ACACTTGC | 0.0282 |
| GATGCCGA | -0.0397 |
| GGCGTGAC | -0.199 |
| GCTGGAGA | -0.248 |
| AACATCCT | 0.105 |
| AGAGACCT | -0.135 |
| CCATGATA | 0.111 |
| ATACTCAG | 0.206 |
| ACATAAGC | 0.153 |
| GTGCACCA | 0.0369 |
| TGTTAACA | 0.14 |
| ACTTTTAG | 0.0851 |
| CATCTAGA | 0.0489 |
| ATGGTCGC | -0.128 |
| CATTGGCC | -0.235 |
| CCTACCCA | -0.0774 |
| GGATATAA | 0.164 |
| TCCCTCAA | -0.107 |
| GCTAGGAC | -0.11 |
| ACGTGTCG | -0.0456 |

| Sequence | PBM E-score |
| --- | --- |
| GATTCGGA | 0.247 |
| GGTTCTTA | 0.095 |
| AGATCACT | 0.0687 |
| CGACACAA | -0.062 |
| GCTGCGAA | 0.1 |
| ACACAGCC | 0.00152 |
| AGGTCGTC | -0.121 |
| AAGTACTT | -0.202 |
| AATCACAT | 0.148 |
| GGCCGGGA | -0.187 |
| CAGATAGC | -0.148 |
| TACGTCTA | 0.0516 |
| GCCTCGGA | -0.126 |
| GACTCTCA | -0.0203 |
| ACACACAT | 0.148 |
| CAGTTGAG | -0.182 |
| CTAAGAGA | -0.112 |
| AAGCTGAG | 0.0158 |
| TATAGTCA | 0.167 |
| GTATGGTA | 0.13 |
| CCAGACTC | -0.15 |
| GACAGTAC | 0.0123 |

Quoted at random: five entries already listed, in no set order.

| Sequence | PBM E-score |
| --- | --- |
| GTATGGTA | 0.13 |
| AAGTACTT | -0.202 |
| CCAGACTC | -0.15 |
| GGTTCTTA | 0.095 |
| CAGATAGC | -0.148 |

(list continues)

| Sequence | PBM E-score |
| --- | --- |
| GAGAGCAC | -0.0454 |
| CCCCTAGG | -0.213 |
| CGAGAACC | -0.00819 |
| AAGTTACG | 0.202 |
| AGATCGCG | 0.0544 |
| GCAGAAAC | 0.057 |
| GCTAGATA | 0.0845 |
| GACACGCA | 0.017 |
| ACTAAAAG | 0.0215 |
| CAGGACCC | -0.258 |
| CGCAGTGA | -0.0281 |
| GTAGATAC | -0.0029 |
| CACCACTA | 0.138 |
| GCAGGTCC | -0.152 |
| CCAGGACG | -0.117 |
| ACATGACG | 0.0689 |
| CCACGAAC | 0.0833 |
| ATTGTAAC | 0.16 |
| AAGACGGC | -0.0667 |
| GAGTGCAA | 0.115 |
| GAATCTAC | -0.164 |
| CTTAGTTC | -0.0308 |

Source: the supplement of paper PMC3334620
